Data taken from patent US20040116675A1 (published 2004).
No constants are given. Whether binding was seen depends on the method and setting. Some binding calls cover weakened binding; strength is not graded here.

By UniProt entry, the sequences of proteins in these tests, tags left out. Residues count along the entry.
UniProt P31041, residues 20-218: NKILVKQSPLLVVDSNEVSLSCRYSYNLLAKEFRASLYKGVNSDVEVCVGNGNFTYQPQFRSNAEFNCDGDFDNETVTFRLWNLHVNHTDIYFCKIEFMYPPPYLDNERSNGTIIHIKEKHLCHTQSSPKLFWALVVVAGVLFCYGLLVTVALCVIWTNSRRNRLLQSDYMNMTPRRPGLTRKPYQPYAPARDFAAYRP

Key:
[1] = biological target: murine CD28 on cells (CD28-positive murine T cell line EL4; BALB/c mouse splenic T cells) (mouse) (UniProt P31041); experiment: flow cytometry competition on EL4 cells (legend of FIG. 19)
[2] = biological target: murine CD28 on cells (CD28-positive murine T cell line EL4; BALB/c mouse splenic T cells) (mouse) (UniProt P31041); experiment: flow cytometry competition on EL4 cells, 25-fold excess against R-PE-PV1
[3] = biological target: murine CD28 on cells (CD28-positive murine T cell line EL4; BALB/c mouse splenic T cells) (mouse) (UniProt P31041); experiment: flow cytometry reverse competition on EL4 cells, 25-fold excess PV1 against PV1-IgG3
[4] = biological target: murine CD28 on cells (CD28-positive murine T cell line EL4; BALB/c mouse splenic T cells) (mouse) (UniProt P31041); experiment: flow cytometry on EL4 cells, 1 µg/ml; the filing says PV1 binds CD28 and also binds nonspecifically to other sites

Measured: binding

B1: PV1 (Armenian hamster anti-murine CD28 antibody, hybridoma ATCC HB-12352) (antibody, V domains shown)
VH: QVQLKQSGAELVKPGASVKISCKTSGYTFTDGYMNWVEQKPGQGLEWIGRIDPDSGNTRYNQKFQGKATLTRDKSSSTVYMDLRSLTSEDSAVYYCARDGTFYGTYGYWYFDFWGQGTQVTVSS
VL: DIVMTQSPYSLAVSAGEKVTMSCRSSQSLYYSGIKKNLLAWYQQKPGQSPKLLIYFTSTRLPGVPDRFTGSGSGTDYTLTITSVQAEDMGHYFCQQGISTPLTFGDGTKLEIR
binds: all assays above
